PubChem BioAssay AID504764, Drosophila RNAi Screening Center | 2011
The screen tested about 22,000 reagents; this is an unselected part of those with a known target gene and a result. Over the whole deposit, 403 (1.9%) got an active call. 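Unnormalised raw counts per well; ratio z-scores behind the hit calls and whether each hit raises or lowers signal are not deposited.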 Reagents against one gene are numbered here. Not stated in the record: the amount of reagent.

Aim: 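Genes whose knock-down alters Notch-dependent transcription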 (primary screen)
Cell system: Drosophila Kc167 cells
Reagent: long dsRNA against Drosophila genes
Timing: about 5 days (4 days dsRNA, then 24 h after transfection)
Conditions: transfection of constitutively active membrane-tethered Notch lacking the extracellular domain, read 24 h later
Measured: 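Light from a Notch-responsive E(spl)m3 luciferase reporter under active Notch, with control-promoter and no-Notch reporter wells to normalise; raw counts from paired wells a and b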
Reading the numbers: induced reporter light, run 1, well a and induced reporter light, run 1, well b: higher = more light from the Notch target reporter with active Notch; control promoter light, run 1, well a and control promoter light, run 1, well b: higher = more light from the viral control promoter (cell number, transfection, viability); uninduced reporter light, run 1, well a: higher = more light from the Notch target reporter without active Notch
Hit rule: 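Wells with low control signal or poorly matching duplicates excluded; duplicates averaged; per source plate, z beyond ±2 for induced/control log2 ratio or beyond ±1.8 for induced/uninduced marks a hit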
Calls: active = modifier hit (raised or lowered Notch signal); inactive = not a hit

The opening 2 records, to show the layout:
Target gene	dsRNA no.	induced reporter light, run 1, well a	induced reporter light, run 1, well b	control promoter light, run 1, well a	control promoter light, run 1, well b	uninduced reporter light, run 1, well a	call
mei-W68 (meiotic W68)	1	90640	95085	1.76e5	1.69e5	9185	inactive
Tim23 (Translocase of inner mitochondrial membrane 23)	1	57365	59590	87215	78650	4775	inactive

The listing, repeating the preview:
Target gene	dsRNA no.	induced reporter light, run 1, well a	induced reporter light, run 1, well b	control promoter light, run 1, well a	control promoter light, run 1, well b	uninduced reporter light, run 1, well a	call
mei-W68 (meiotic W68)	1	90640	95085	1.76e5	1.69e5	9185	inactive
Tim23 (Translocase of inner mitochondrial membrane 23)	1	57365	59590	87215	78650	4775	inactive
Cfp1 (CXXC finger protein 1)	1	1.17e5	1.21e5	2.05e5	1.75e5	8610	inactive
CG11159	1	1.11e5	1.01e5	1.65e5	1.78e5	5895	inactive
Cdc23 (Cell division cycle 23)	1	2.36e5	1.79e5	1.97e5	2.08e5	16080	inactive
CG14646	1	1.35e5	1.06e5	75020	71645	8050	inactive
gwl (greatwall)	1	2.08e5	2.04e5	3.08e5	3.54e5	13990	inactive
CG11771	1	1.48e5	1.90e5	2.34e5	1.90e5	14205	inactive
CG10559	1	1.76e5	1.66e5	2.23e5	2.26e5	14890	inactive
form3 (formin 3)	1	1.87e5	1.57e5	1.86e5	2.21e5	15785	inactive
form3 (formin 3)	2	77375	1.06e5	58685	25390	10470	inactive
form3 (formin 3)	3	1.69e5	1.73e5	2.08e5	1.58e5	9338	inactive
Snrk (SNF related kinase)	1	1.40e5	1.29e5	1.33e5	1.20e5	10730	inactive
Fer1 (48 related 1)	1	74165	73990	83300	90100	6525	inactive
Fer1 (48 related 1)	2	70270	88565	69865	69220	6670	inactive
CG14511	1	1.01e5	70810	1.32e5	1.18e5	8775	inactive
CG32409	1	2.31e5	2.42e5	2.67e5	2.14e5	17950	inactive
CG7745	1	52360	36570	23855	20745	10040	inactive
Rrp45	1	24590	17070	16110	14980	1895	inactive
Non3 (Novel nucleolar protein 3)	1	1.74e5	1.78e5	2.36e5	2.40e5	17375	inactive
CG9062	1	1.07e5	91140	1.26e5	92550	9950	inactive
CG15213	1	1.14e5	1.27e5	1.28e5	80785	8195	inactive
ry (rosy)	1	1.28e5	1.24e5	87275	74540	7338	inactive
Gale (UDP-galactose 4'-epimerase)	1	90785	96800	1.64e5	1.65e5	7670	inactive
eg (eagle)	1	1.58e5	1.15e5	1.55e5	1.11e5	8145	inactive
Rab3-GAP (Rab3 GTPase activating protein)	1	2.08e5	2.11e5	1.52e5	1.77e5	16505	inactive
flap (flapper)	1	94070	71960	79690	72605	6915	inactive
flap (flapper)	2	1.78e5	1.88e5	1.69e5	1.41e5	13025	inactive
DENR (Density regulated protein)	1	87200	1.38e5	88045	52795	9080	inactive
Ufc1 (Ubiquitin-fold modifier conjugating enzyme 1)	1	97175	1.02e5	2.05e5	2.17e5	9615	inactive
CG33158	1	1.64e5	2.04e5	2.98e5	3.02e5	12870	inactive
CG33158	2	1.63e5	1.80e5	2.16e5	1.64e5	7635	inactive
CG33158	3	1.88e5	1.45e5	2.70e5	1.76e5	9180	inactive
CG8768	1	1.03e5	75365	76565	74430	7745	inactive
